PubChem BioAssay AID1159584 | Peter MacCallum Cancer Centre | 2016
The whole screen tested about 18,000 reagents; this is a part drawn at random. Further read-outs or replicates are left out here. Not given: the amount of reagent, the time to read-out.

Test: 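Genes that CDH1-null MCF10A cells selectively depend on to survive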 (primary screen)
Cells: human MCF10A breast epithelial cells, parental and CDH1-null
Knock-down reagent: siRNA against human genes
Read-out: 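Cell viability by CellTiter-Glo ATP luminescence, each line scaled to the mean of mock wells across plates, then CDH1-null over parental ratio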
Scale: CDH1-null / parental viability ratio: higher = CDH1-null cells survive relatively better than parental; CDH1-null viability vs mock: higher = more viable CDH1-null cells

WT1 (WT1 transcription factor) scored CDH1-null / parental viability ratio 1.12; CDH1-null viability vs mock (fraction of mock) = 1.14.
Silencing of FHL3 (four and a half LIM domains 3) gave: CDH1-null / parental viability ratio 0.98; CDH1-null viability vs mock (fraction of mock) = 0.92.
Against TEX19 (testis expressed 19) the deposit lists CDH1-null / parental viability ratio 1.25; CDH1-null viability vs mock (fraction of mock) = 0.5.
With knock-down of FSCN1 (fascin actin-bundling protein 1) the results were CDH1-null / parental viability ratio 1.18; CDH1-null viability vs mock (fraction of mock) = 0.52.
Silencing of MAGI3 came out at: CDH1-null / parental viability ratio 0.9; CDH1-null viability vs mock (fraction of mock) = 0.86.
ZFAND4 (zinc finger AN1-type containing 4) scored CDH1-null / parental viability ratio 1.47; CDH1-null viability vs mock (fraction of mock) = 0.88.
Silencing of MTSS1 (MTSS I-BAR domain containing 1) came out at: CDH1-null / parental viability ratio 0.96; CDH1-null viability vs mock (fraction of mock) = 0.8.
Silencing of MAN1A2 (mannosidase alpha class 1A member 2) gave: CDH1-null / parental viability ratio 1.12; CDH1-null viability vs mock (fraction of mock) = 0.92.
With knock-down of CNNM2 the results were CDH1-null / parental viability ratio 1.15; CDH1-null viability vs mock (fraction of mock) = 0.6.
ANAPC4 (anaphase promoting complex subunit 4) gave CDH1-null / parental viability ratio 0.87; CDH1-null viability vs mock (fraction of mock) = 0.54.
For SPEM1 (spermatid maturation 1), the entry reads CDH1-null / parental viability ratio 0.87; CDH1-null viability vs mock (fraction of mock) = 0.59.
For FEM1C (fem-1 homolog C), the entry reads CDH1-null / parental viability ratio 1.11; CDH1-null viability vs mock (fraction of mock) = 0.82.
EZR (ezrin) gave CDH1-null / parental viability ratio 0.87; CDH1-null viability vs mock (fraction of mock) = 0.66.
Knock-down of OR2T34 (olfactory receptor family 2 subfamily T member 34) resulted in: CDH1-null / parental viability ratio 1.04; CDH1-null viability vs mock (fraction of mock) = 0.52.
For FBXO3 (F-box protein 3) the deposit lists CDH1-null / parental viability ratio 0.94; CDH1-null viability vs mock (fraction of mock) = 0.79.

Just “CDH1-null / parental viability ratio” (2 entries from above):
CNNM2	1.15
ANAPC4 (anaphase promoting complex subunit 4)	0.87

Continued.
With knock-down of CTSL3P (cathepsin L family member 3, pseudogene), the screen gave CDH1-null / parental viability ratio 1.05; CDH1-null viability vs mock (fraction of mock) = 0.9.
Against DYNC1LI2 (dynein cytoplasmic 1 light intermediate chain 2) the deposit lists CDH1-null / parental viability ratio 0.99; CDH1-null viability vs mock (fraction of mock) = 0.82.
TSPAN7 (tetraspanin 7) showed CDH1-null / parental viability ratio 1.01; CDH1-null viability vs mock (fraction of mock) = 1.
Depletion of ANKHD1 (ankyrin repeat and KH domain containing 1) came out at: CDH1-null / parental viability ratio 1.11; CDH1-null viability vs mock (fraction of mock) = 0.62.
CEP152 (centrosomal protein 152) showed CDH1-null / parental viability ratio 0.89; CDH1-null viability vs mock (fraction of mock) = 0.96.
For SEMA3D (semaphorin 3D), the values are CDH1-null / parental viability ratio 0.97; CDH1-null viability vs mock (fraction of mock) = 0.9.
Depletion of LDLR (low density lipoprotein receptor) came out at: CDH1-null / parental viability ratio 0.98; CDH1-null viability vs mock (fraction of mock) = 0.9.
Against EPHA4 (EPH receptor A4) the deposit lists CDH1-null / parental viability ratio 0.83; CDH1-null viability vs mock (fraction of mock) = 0.62.
After knock-down of EFR3A (EFR3 homolog A), the screen gave CDH1-null / parental viability ratio 0.91; CDH1-null viability vs mock (fraction of mock) = 0.88.
